According to article doi:10.1101/2023.10.10.561251:

Molecular target: cpFeS-YFP
Assay: co-IP

binding: no binding
B1: VIPP1-FLAG (Arabidopsis VIPP1 with a FLAG tag) (protein, UniProt O80796 65-330)
chain: CNGHGATMNLFERFSRVVKSYANALISSFEDPEKILEQTVIEMNSDLTKMRQATAQVLASQKQLQNKYKAAQQSSDDWYKRAQLALAKGDEDLAREALKRRKSFADNATALKTQLDQQKGVVDNLVSNTRLLESKIQEAKAKKDTLLARARTAKTATKVQEMIGTVNTSGALSAFEKMEEKVMAMESEADALTQIGTDELEGKFQMLETSSVDDDLADLKKELSGSSKKGELPPGRSTVAASTRYPFKDSEIENELNELRRKANDF

Results are given in words; binding and its absence hold for the method and conditions named. Binding seen in cells or lysates may run through a third protein. Tags and fused reporters may be left off the sequences shown.
